These are yes or no findings as the source states them, for the method shown. In cells and extracts the contact can be indirect. Some binding calls cover weakened binding; strength is not graded here.
How the values were obtained:
[1] = target: Stromal interaction molecule 1 (STIM1) (human (endogenous in BEAS-2B)) (UniProt Q13586); experiment: FRET or BRET; FRET in uninfected BEAS-2B cells; donor STING, acceptor STIM1
[2] = target: Phosphoinositol-4-kinase IIIβ (PI4KIIIβ) (human (endogenous in BEAS-2B)) (UniProt Q9UBF8); experiment: FRET or BRET; FRET in BEAS-2B cells infected with HRV for 1 h; STING with PI4KIIIβ
[3] = target: SNAP29 (human (endogenous in bronchial epithelial cells)) (UniProt O95721); experiment: FRET or BRET; FRET efficiency (E%) between STING, Ykt6, snap29 and Vamp8 in mock and HRV infected cells 6 h p.i.
[4] = target: T1, VAMP8 (human (endogenous in bronchial epithelial cells)) (UniProt Q9BV40); experiment: as above
T1 sequence: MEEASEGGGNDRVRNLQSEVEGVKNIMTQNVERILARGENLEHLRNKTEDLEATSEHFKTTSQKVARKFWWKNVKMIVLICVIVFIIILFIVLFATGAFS

The chains behind the UniProt entries cited, without tags or fusion partners. Residues count along the entry.
UniProt Q13586, residues 23-685: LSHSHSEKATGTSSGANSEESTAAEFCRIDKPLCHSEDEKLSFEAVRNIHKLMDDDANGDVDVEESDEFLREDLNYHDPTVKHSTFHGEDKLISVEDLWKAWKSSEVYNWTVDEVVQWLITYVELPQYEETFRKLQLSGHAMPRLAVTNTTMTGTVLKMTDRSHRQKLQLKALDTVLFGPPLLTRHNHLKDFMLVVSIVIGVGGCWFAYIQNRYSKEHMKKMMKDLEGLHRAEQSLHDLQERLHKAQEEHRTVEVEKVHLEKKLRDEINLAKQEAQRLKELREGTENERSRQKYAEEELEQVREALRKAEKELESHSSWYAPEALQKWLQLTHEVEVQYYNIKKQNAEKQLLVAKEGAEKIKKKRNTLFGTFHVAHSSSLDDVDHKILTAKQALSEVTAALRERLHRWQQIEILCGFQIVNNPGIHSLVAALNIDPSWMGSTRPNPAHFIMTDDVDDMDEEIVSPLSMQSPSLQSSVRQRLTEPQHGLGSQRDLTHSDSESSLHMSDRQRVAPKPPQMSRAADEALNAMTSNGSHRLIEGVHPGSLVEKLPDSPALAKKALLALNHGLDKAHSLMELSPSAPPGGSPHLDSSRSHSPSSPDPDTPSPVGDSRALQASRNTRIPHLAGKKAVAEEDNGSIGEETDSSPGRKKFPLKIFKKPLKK
UniProt Q9UBF8: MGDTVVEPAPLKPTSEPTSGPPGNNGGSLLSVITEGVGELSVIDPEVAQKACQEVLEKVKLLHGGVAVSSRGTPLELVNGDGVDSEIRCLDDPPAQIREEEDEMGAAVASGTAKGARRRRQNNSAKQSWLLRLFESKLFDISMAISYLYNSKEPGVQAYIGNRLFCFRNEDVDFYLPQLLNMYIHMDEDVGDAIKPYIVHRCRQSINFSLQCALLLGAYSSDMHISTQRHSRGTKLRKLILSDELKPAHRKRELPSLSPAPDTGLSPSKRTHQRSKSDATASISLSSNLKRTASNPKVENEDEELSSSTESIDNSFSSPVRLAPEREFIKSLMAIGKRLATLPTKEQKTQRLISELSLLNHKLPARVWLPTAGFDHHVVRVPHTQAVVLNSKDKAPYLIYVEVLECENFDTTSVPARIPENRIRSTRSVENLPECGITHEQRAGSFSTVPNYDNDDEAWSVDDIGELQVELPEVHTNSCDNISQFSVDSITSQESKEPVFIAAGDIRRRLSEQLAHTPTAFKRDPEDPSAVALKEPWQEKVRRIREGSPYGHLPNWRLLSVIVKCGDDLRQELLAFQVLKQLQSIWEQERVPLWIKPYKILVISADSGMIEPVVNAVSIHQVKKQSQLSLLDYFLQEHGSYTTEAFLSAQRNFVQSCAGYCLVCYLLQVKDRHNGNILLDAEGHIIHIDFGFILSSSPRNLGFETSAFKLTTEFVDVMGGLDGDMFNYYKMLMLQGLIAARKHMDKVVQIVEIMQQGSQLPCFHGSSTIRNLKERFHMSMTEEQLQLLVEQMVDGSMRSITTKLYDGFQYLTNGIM
UniProt O95721: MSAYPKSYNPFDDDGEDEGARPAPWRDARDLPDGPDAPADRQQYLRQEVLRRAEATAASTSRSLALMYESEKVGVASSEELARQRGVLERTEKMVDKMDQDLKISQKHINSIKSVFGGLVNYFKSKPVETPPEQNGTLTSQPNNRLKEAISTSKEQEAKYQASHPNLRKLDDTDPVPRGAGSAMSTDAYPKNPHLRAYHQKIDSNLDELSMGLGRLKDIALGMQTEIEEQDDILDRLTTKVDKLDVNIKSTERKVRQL
UniProt Q86WV6: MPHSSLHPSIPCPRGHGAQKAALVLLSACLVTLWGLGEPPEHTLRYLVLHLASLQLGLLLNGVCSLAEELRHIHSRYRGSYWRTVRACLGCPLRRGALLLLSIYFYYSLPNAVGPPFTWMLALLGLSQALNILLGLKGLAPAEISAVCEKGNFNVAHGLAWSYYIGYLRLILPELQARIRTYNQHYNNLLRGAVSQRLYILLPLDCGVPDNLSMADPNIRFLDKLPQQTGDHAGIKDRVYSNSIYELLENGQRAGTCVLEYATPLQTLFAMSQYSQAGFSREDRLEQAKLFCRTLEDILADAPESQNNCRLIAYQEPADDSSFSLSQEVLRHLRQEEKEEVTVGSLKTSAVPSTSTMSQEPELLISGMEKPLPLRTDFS

[5] = target: T2, Ykt6 (human (endogenous in bronchial epithelial cells)) (UniProt O15498); experiment: as above
T2 sequence: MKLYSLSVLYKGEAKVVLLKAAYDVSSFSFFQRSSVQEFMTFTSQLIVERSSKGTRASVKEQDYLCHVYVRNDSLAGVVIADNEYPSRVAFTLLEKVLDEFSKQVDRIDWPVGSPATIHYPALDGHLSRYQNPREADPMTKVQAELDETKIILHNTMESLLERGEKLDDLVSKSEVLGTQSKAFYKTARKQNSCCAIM

Measured: binding

Stimulator of interferon genes (STING) (from UniProt Q86WV6 1-379)
binds: all assays above
